Laboratory results from paper PMC4239118.
Like-named read-outs stand apart in the source and are kept apart here. Results are given in words; binding and its absence hold for the method and conditions named. Binding seen in cells or lysates may run through a third protein. These calls come from enrichment with a bait or labelling near it, and not all partners need be listed. For part of these data: A no says only that the protein was not detected with the bait. For part of these data: Sequences can lack the tags named with a protein.

Assays:
Test in all cases: affinity purification with mass spectrometry; GFP-trap beads incubated with crude cell extracts of N. crassa strains expressing GFP fusions, 2 h at 4°C, three washes with IP buffer; hits filtered against control purifications with GFP as bait; two biological replicates
[1] = target: GFP-fusion protein of MAK-2 (Neurospora crassa) (UniProt V5IKE7)
[2] = target: T1, STE-20-GFP (Neurospora crassa) (UniProt Q7RZD3)
T1 sequence: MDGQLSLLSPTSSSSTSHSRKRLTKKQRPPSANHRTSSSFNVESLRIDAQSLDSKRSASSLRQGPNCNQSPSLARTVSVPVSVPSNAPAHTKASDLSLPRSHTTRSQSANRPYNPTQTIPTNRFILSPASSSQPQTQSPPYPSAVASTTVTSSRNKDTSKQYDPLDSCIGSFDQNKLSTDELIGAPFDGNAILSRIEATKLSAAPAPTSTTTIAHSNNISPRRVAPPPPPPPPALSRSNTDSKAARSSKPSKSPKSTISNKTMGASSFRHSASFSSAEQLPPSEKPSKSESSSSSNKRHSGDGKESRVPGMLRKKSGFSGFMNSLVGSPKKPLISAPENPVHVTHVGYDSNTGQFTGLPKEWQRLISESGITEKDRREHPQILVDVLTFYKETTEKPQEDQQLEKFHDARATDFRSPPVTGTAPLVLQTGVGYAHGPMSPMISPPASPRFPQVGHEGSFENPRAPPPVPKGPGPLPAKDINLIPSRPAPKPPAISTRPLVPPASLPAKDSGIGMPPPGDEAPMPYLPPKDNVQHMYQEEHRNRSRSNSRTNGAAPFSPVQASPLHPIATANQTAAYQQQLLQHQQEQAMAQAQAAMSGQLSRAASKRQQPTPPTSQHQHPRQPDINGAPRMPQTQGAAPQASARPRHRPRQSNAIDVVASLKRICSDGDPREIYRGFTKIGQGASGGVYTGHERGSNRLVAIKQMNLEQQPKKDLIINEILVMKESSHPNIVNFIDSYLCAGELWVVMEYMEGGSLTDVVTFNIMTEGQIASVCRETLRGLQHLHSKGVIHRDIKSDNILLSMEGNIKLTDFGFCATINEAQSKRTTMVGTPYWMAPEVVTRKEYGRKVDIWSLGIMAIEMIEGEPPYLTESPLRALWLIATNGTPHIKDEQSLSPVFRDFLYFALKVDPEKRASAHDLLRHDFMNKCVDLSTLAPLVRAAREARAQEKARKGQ

[3] = target: GFP-STE-50 (Neurospora crassa) (UniProt Q7RXY9)
[4] = target: GFP-fusion protein of MAK-2 (Neurospora crassa) (UniProt V5IKE7); remark: listed apart in the source
[5] = target: GFP-fusion protein of NRC-1 (Neurospora crassa)
[6] = target: GFP-fusion protein of MEK-2 (Neurospora crassa)
[7] = target: T1, STE-20-GFP (Neurospora crassa); remark: listed apart in the source
[8] = target: GFP-STE-50 (Neurospora crassa) (UniProt Q7RXY9); remark: listed apart in the source

serine/threonine kinase YPK-1 (from UniProt Q7RVX6) (enzyme)
binding [1]: binds

CLA-4 (enzyme)
binding [2]: no binding

NRC-1 (enzyme)
binding [2]: binds

nuclear pore protein NCU01702 (from UniProt Q7RVQ2)
binding [1]: binds

adenylate cyclase capping protein CAP-1 (from UniProt Q7SAN3)
binding [1]: no binding | binding [3]: binds

HAM-5 (from UniProt V5IN79 1-1686)
binding [1]: binds | binding [2]: binds

type V myosin/NCU01440 (from UniProt V5INB2)
binding [1]: binds

HAM-2
binding [2]: no binding

STE-50 (from UniProt Q7RXY9)
binding [2]: binds

HAM-3 (from UniProt Q7SCF4 1-862)
binding [1]: binds weakly

B1: PP-1 (protein, UniProt Q1K623 1-722)
chain: MYSSQHANMAAASQKPETFMLSTEAQQALPHDAQVALQQVDNLKYFLISAPVDWQPDQYIRRFLLPTGEYVSCVLWNNLFHISGTDIVRCLSFRFQAFGRPVKNSKKFEEGIFSDLRNLKAGSDASLEEPKSPFLDFLYKNNCIRTQKKQKVFFWYSVPHDRLFLDALERDLKREKMGQEATTVAVSEPALSFQYDSSQSLFESLTKAQQANSSSFPAQQLAFQSQSTSPILRAADSMPPPQMMQPMPSQMMQPMGQNMGQQMSQTMSQSMAPLSDGLEAMVSYGAMTMGPAMTCPQPMVKREPDYGRVQYTQNGVPITQVHQRHTSMPAYGLECSPAPSFVSSHFEDYSQRGLSFEPLTPPHQQMGVIGEPAYIANEETGLYTAIPDHLNAGALNGMMQLPPSNLAAPSYPRSYASSSISQDHARGYSPMAAYTVIEGSPTYKQRRRRSSIPPSVLSATTAIAAGTPGVYKPSDLRRSVSASVGPVAEGDESADNSPPGLTYSNPAINMARQQHHEMLELSRHGTPLSTVEGSPALNPMNISMGQSYGPLNDDELAPMSERQMSQGHPGVIRRARSATVSELGPYPQKSHSCPIPSCGRVFKRLEHLKRHVRTHTQERPYVCSYCQKAFSRSDNLAQHKRTHDRGDGSEGTSNLSGEEEEEYSSPTSEGGYVHASGAPSNGNSSTPQSTMYNNLQTLSMPMTISEPQPINTGEMMRNELEF
binding [4]: binds | binding [5]: no binding | binding [6]: no binding

B2: RCO-1 (protein, UniProt P78706 1-604)
chain: MSMYPHRPIAGAPIQNMGRLNELLDGIRMEFESQARQYETCQHDLATQLQELQVIREKVFQMEQHQMNVKQKYEDEIALLRRQLEARGGAPGNMNPPPQHPGQQQPPAIGLGSNVFSAIMAGQGGQALVPPPPPPQQQEQPAHMPAPPGLQGPPPPPPPPSQQPPFQQQYQGPQGPGNFPPQPPQSTASPGPAGKRGIGRPPAGGPATPQINTPIPYNGGPAQSPQVPTHPTPDHTRMAQHHQPPPPPPSQTNALSELDPDRLPNHIKKMKDDWWVIFNAAVPRVLDVELVHTLQHESVVCCVRFSMDGKYVATGCNRSAQIYDVETGEKLCILQDENIDLTGDLYIRSVCFSPDGKYLATGAEDKLIRVWDIQSRTIRNTFHGHEQDIYSLDFSRDGRTIASGSGDRTVRLWDIETGQNTSVLSIEDGVTTVAISPDKQFVAAGSLDKSVRVWDMRGYLAERLEGPDGHKDSVYSVAFSPDGRNLVSGSLDKTIKMWELSAPRGIPSSAPPKGGRCIKTFEGHRDFVLSVALTPDSQWVLSGSKDRGVQFWDPRTGHTQLMLQGHKNSVISVAPSPVTGPNGVGYFATGSGDMRARIWSYSRI
binding [4]: binds | binding [5]: no binding | binding [6]: no binding

B3: STE-20 (enzyme, UniProt Q7RZD3 1-954)
chain: T1 sequence
binding [4]: no binding | binding [5]: binds | binding [6]: no binding

B4: RAS-2/SMCO-7 (protein, UniProt Q01387 1-229)
chain: MVGNKQVLYKLVVLGDGGVGKTALTIQLCLEHFVETYDPTIEDSYRKQVVIDGQACMLEVLDTAGQEEYTALRDQWIRDGEGFVLVYSISSRSSFARIKKFHHQIQRVKESTSSPSAYPGSSPLAATNPSAPVPIMLVGNKSDRVTEREVSTQEGHALARELGCEFTEASAKTRTNVEKAFYDVVKQLRKQRQQGQSTPRALPPSGNSKSEKYSGTEKPKRPRGKCLII
binding [4]: no binding | binding [5]: binds | binding [6]: no binding | binding [7]: binds

B5: HAM-4 (protein, UniProt Q7SDL6 1-797)
chain: MTAVANPPSFANLNRPGWINGDQSLNPMNPDDNRMNMFMSRKSLQRSNSSSSVASTASSSSTSTVTSTGSVSTAPTNGSPNSTTSSGGVNGNGNPMSVGGDTAPWSNSQALRKKPQPKNNNTNSWTNARPEGASDLSRSATGRPPMANGVNGAPPTMHHQQQQPSSQPQPQQQPQSAMSAPNQMMSQSNLARPGADQMAPQRLPVLSLLSLNGTFERKTISVPFYPDIMKIGRQTNAKTVPLPTNGFFDSKVLSRQHAEIWANQDGKIFIKDVKSSNGTFVNGNRLSPENRESEPHELQSQDHLELGIDIVSEDQKTVVHHKVAAKVEHAGFVTQTNNLLDMNFGDLDPSNGGMMMPMGGMPPFRGRAGSQASLASNGRMMPGNMGGPIPGMAQQRQFWLNPVTTEHIVKKLQTEMRNAKLQHHDLIRTGQFITALVTKDDIKNQDKPEDIEPPKLHVNGNIPFKSEISKTRFSEPPAPPPSQPLPEKPDVARASDAPSLKRGITERPKSHPSPKDTNVNQVVQLTEALNLAKKELDSNSARVRDLERMLNEEREARLQAEVLMQKMAVSQQAVTNGTSVAALTNGHSATERVFEPPTEQTETNDASALGGLESEKSPKPETSNIEAMAAAFQARIESMTTEMKGLREQLEAFRNRAEQAEAERDADRKTLSQLILQIRQRDEEEQQAAARKSRSSSRGRSQQGGKDKEVDEALPKANGAAVTGPTQSDGSSEDHAEEVPSLALTDTLKPSSSPALVYPHQDRALIQAMPYVSVLGVVFIGMGLMAYLNGWQPQAKN
binding [4]: no binding | binding [8]: no binding | binding [5]: no binding | binding [6]: no binding | binding [7]: no binding
